Some of the results follow. Shown are side measurements of this screen, not its main read-out; they come without a call. The list favours compounds with an active or inconclusive main result. The note in brackets gives the kind of curve behind each potency; many fits are weak.
Assay: qHTS Assay for Lipid Storage Modulators in Drosophila S3 Cells;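 on cell number change: cells counted by Cell Tracker Red CMTPX staining in the red channel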
Conditions: BODIPY lipid droplet fluorescence, 18-24 h; for cell number change: measured here: cell count max response, cells fed with added oleic acid
How it was run: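 Drosophila S3 cells got compounds at several concentrations plus oleic acid (400 uM solution). Laser-scanning cytometry with 488 nm excitation read lipid droplets at 500-530 nm and cells at 575-640 nm. Percent activity was relative to 20 uM Triacsin C.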

[1] = measured here: lipid fluorescence (Fed channel) AC50, cells fed with added oleic acid
[2] = measured here: cell number channel AC50, cells fed with added oleic acid

CC(C)NC(=O)NC(=O)COC(=O)c1cccc(S(=O)(=O)N2CCCCC2)c1
cell number change: -6.61%

CC1=C(C)CC(C(=O)Nc2cccc([N+](=O)[O-])c2)C(C(=O)O)C1 (configuration not stated)
cell number change: 6.86%
AC50 [1]: 6.51 µM [rising, partial curve]

COc1ccc(S(=O)(=O)Cc2ccc(C(=O)NCc3ccccc3)o2)cc1
cell number change: 35.9%
AC50 [2]: 29.1 µM [rising, single point]
AC50 [1]: 20.6 µM [falling, single point]

COc1ccc([C@H]2CC(=O)C=C(c3ccc(C)cc3)C2)cc1OC
cell number change: -25%
AC50 [2]: 0.00461 µM [falling, full curve, poor fit]
AC50 [1]: 0.731 µM [falling, partial curve, poor fit]

O=S(=O)(CCc1ccncc1)c1ccc(Cl)cc1
cell number change: -7.69%
AC50 [2]: 3.66 µM [rising, partial curve]

O=C(NC1CCCCC1)C1COc2ccccc2O1 (configuration not stated)
AC50 [1]: 6.51 µM [rising, single point]

O=C(COC(=O)Cc1c(F)cccc1Cl)NC1CCS(=O)(=O)C1 (configuration not stated)
cell number change: -81.5%
AC50 [2]: 29.1 µM [falling, single point]

Cn1c(=O)c2c(ncn2CC(=O)OCC(=O)NC2CCCc3ccccc32)n(C)c1=O (configuration not stated)
AC50 [1]: 0.291 µM [falling, partial curve, poor fit]

COc1ccc(CCCC(=O)Nc2cc(C)ccc2OC)cc1
cell number change: -14.4%

CC(C)C(=O)OCC(=O)Nc1ccc2c(c1)CCC2
cell number change: 42.2%
AC50 [2]: 29.1 µM [rising, single point]

COc1ccccc1OCC(=O)Nc1ccc(S(=O)(=O)N(C)c2ccccc2)cc1
cell number change: 1.18%

CCc1noc(C)c1C(=O)N(C)CC(=O)Nc1ccccc1C(F)(F)F
cell number change: 4.02%

Cc1ccc(-c2cc(N)n(-c3ccc(C)cc3)n2)cc1
cell number change: -6.44%
AC50 [1]: 3.66 µM [falling, partial curve]

CCOc1c2ccccc2nn1CCO
cell number change: -2.64%
AC50 [1]: 29.1 µM [rising, single point]

O=C(NOC(=O)c1ccccc1Cl)c1cccs1
cell number change: -23.4%
AC50 [2]: 4.61 µM [falling, full curve, poor fit]
AC50 [1]: 29.1 µM [falling, single point]

Cn1cnnc1SCC(=O)Nc1ccc2nc(SCc3ccccc3)sc2c1
cell number change: 19.1%
AC50 [1]: 25.9 µM [rising, single point]

CCOC(=O)C1CCCN(C(=O)c2cc3cc(Br)ccc3oc2=O)C1 (configuration not stated)
cell number change: -49.8%
AC50 [2]: 10.3 µM [falling, partial curve, poor fit]
AC50 [1]: 29.1 µM [falling, single point]

Cc1ccc(C)c(N(CC(=O)NCc2ccc3c(c2)OCO3)C(=O)CCC(=O)Nc2ccccn2)c1
cell number change: -0.746%

CN(C)CCSc1nc(O)c(-c2ccccc2)c(=O)n1-c1ccccc1
cell number change: -15.6%
AC50 [1]: 2.59 µM [falling, full curve, poor fit]

Cc1ccc(NC(=O)C2CCN(S(=O)(=O)c3ccc4c(c3)NC(=O)CO4)CC2)cc1
cell number change: 47.1%
AC50 [2]: 29.1 µM [rising, single point]
AC50 [1]: 6.51 µM [rising, single point]

CCCC[N+](C)(C)CCC(=O)NC(C)(C)CS(=O)(=O)[O-]
AC50 [1]: 29.1 µM [rising, single point]

CN(C)c1ncnc2sc(-c3ccccc3)cc12
cell number change: 58.1%
AC50 [2]: 29.1 µM [rising, single point]

S=C1Cc2ccccc2N1
cell number change: -62.2%
AC50 [2]: 5.8 µM [falling, full curve]
AC50 [1]: 5.17 µM [falling, full curve]

O=S(=O)(NCC1CCN(Cc2ccccc2)CC1)c1ccccc1C(F)(F)F
cell number change: 14.6%
AC50 [1]: 16.4 µM [rising, single point]

Cc1ccc(O)c(CCc2ccccc2)n1
cell number change: 4.67%
AC50 [1]: 29.1 µM [falling, single point]

COc1cc(/C=C/C(=O)c2c(O)ccc3c(C)cc(=O)oc23)ccc1O
cell number change: 19.7%
AC50 [2]: 0.731 µM [falling, full curve]
AC50 [1]: 0.0164 µM [falling, full curve]

COC(=O)C1=C(C(=O)OC)[C@@H]2N(Cc3ccccc3)c3ccccc3[C@@]23C[C@@H](C(=O)OC)N(C(=O)c2cccs2)C3=N1
cell number change: -46.3%
AC50 [2]: 29.1 µM [falling, single point]
AC50 [1]: 18.4 µM [falling, single point]

C#CCNC(=O)C1=C[C@H](c2csc3ccccc23)[C@@H](CCCO)[C@H](OCC)O1
cell number change: -10.4%
AC50 [1]: 29.1 µM [falling, single point]

C=CCOc1ccc(-c2n[nH]c(=S)o2)cc1
cell number change: 11.6%

COc1ccc(NC(=O)CSc2nnc(NC(=O)c3ccco3)s2)cc1OC
cell number change: -16.5%
AC50 [1]: 6.51 µM [falling, single point]

O=C(Nc1nnc(-c2ccc(Cl)cc2)o1)c1ccccc1Br
cell number change: -20.9%
AC50 [1]: 11.6 µM [falling, single point]

C=C(C)CSc1nc(C)c(Cc2ccccc2)c(=O)[nH]1
cell number change: 78.8%
AC50 [2]: 29.1 µM [rising, single point]

O=C(Cn1c(SCC(=O)NC2CCCC2)nnc1-c1ccncc1)Nc1ccc2c(c1)OCO2
cell number change: -9.74%

CC1CN(Cc2nc3c(c(=O)n(C)c(=O)n3C)n2Cc2ccccc2)CC(C)O1 (configuration not stated)
cell number change: 46.9%
AC50 [2]: 29.1 µM [rising, single point]
AC50 [1]: 29.1 µM [rising, single point]

CCOC(=O)c1sc(NC(=O)Cc2ccccc2OC)nc1C
cell number change: -12.6%
AC50 [1]: 6.51 µM [falling, single point]

O=C(N/N=C/c1ccc(N2CCOCC2)cc1)c1ccccc1NS(=O)(=O)c1cccs1
cell number change: -17.3%
AC50 [1]: 25.9 µM [falling, partial curve]

Cn1nc(-c2ccccn2)nc2c(=O)n(C)c(=O)nc1-2
cell number change: -19.3%
AC50 [2]: 0.326 µM [falling, full curve, poor fit]
AC50 [1]: 0.326 µM [falling, full curve]

O=C(c1ccc([N+](=O)[O-])cc1)N1CCCC1
cell number change: -18.5%
AC50 [1]: 29.1 µM [falling, single point]

Cc1c(NC(=S)NC(=O)CSc2ccc(Cl)cc2)cccc1C(=O)O
cell number change: -13.9%
AC50 [1]: 29.1 µM [rising, single point]

O=C(Cc1cccc2ccccc12)N1CCN(c2ncccn2)CC1
cell number change: 14.7%

CC(C)(C)NC(=O)CN(Cc1ccc2c(c1)OCO2)C(=O)CNS(=O)(=O)c1ccc(F)cc1
cell number change: 60.3%
AC50 [2]: 18.4 µM [rising, partial curve]

CNC(=O)c1cc(S(=O)(=O)Nc2ccc(C)cc2C)ccc1C
AC50 [2]: 2.91 µM [rising, partial curve]

COc1cc(N2CCCC2)c(OC)cc1/C=C(/C#N)c1ccc(Br)cc1
cell number change: -46.3%
AC50 [1]: 0.461 µM [rising, full curve]

O=[N+]([O-])c1cc(S(=O)(=O)N2CCCC2)ccc1N/N=C/c1cccs1
cell number change: -25.2%
AC50 [2]: 0.651 µM [falling, full curve]

Cc1ccc(NC(=O)C2(NC(=O)c3cccc(N4C(=O)CSC4c4ccccc4)c3)CCCCC2)cc1 (configuration not stated)
cell number change: 7.73%
AC50 [1]: 0.231 µM [rising, full curve, poor fit]

CCC1Oc2ccccc2N(CC(=O)Nc2ccc(OC)cc2OC)C1=O (configuration not stated)
cell number change: 1.49%
AC50 [1]: 0.184 µM [rising, full curve, poor fit]

COC(=O)c1ccc(NS(=O)(=O)NC(=O)c2c[nH]c3ccccc23)cc1
cell number change: -2.83%
AC50 [1]: 18.4 µM [rising, partial curve]

CC1(C)CSC(=S)N1S(=O)(=O)c1ccccc1
cell number change: -27.4%
AC50 [2]: 0.651 µM [falling, full curve, poor fit]
AC50 [1]: 2.31 µM [falling, full curve, poor fit]

Cn1c(=O)c2c(nc(CN3CCN(C(=O)c4ccco4)CC3)n2CC(=O)C(C)(C)C)n(C)c1=O
cell number change: 0.901%
AC50 [1]: 29.1 µM [falling, single point]

CC(=O)NC1CCCN(O)C(=O)/C=C(\C)CCOC(=O)C(NC(C)=O)CCCN(O)C(=O)/C=C(\C)CCOC(=O)C(NC(C)=O)CCCN(O)C(=O)/C=C(\C)CCOC1=O (configuration not stated)
cell number change: -40.6%
AC50 [2]: 0.231 µM [falling, full curve, poor fit]

CNc1ccc(Br)cc(C(=O)/C=C/c2ccc(OC)cc2OC)c1=O
cell number change: 0.874%
AC50 [1]: 20.6 µM [falling, single point]

CC(=O)Nc1ccc(OS(=O)(=O)c2ccccc2C)cc1
cell number change: -16.6%
AC50 [1]: 0.0291 µM [falling, full curve, poor fit]

CC(=O)Oc1ccc(C(=O)Nc2cc(C)ccc2NC(=O)COc2ccccc2)cc1
cell number change: -30.3%
AC50 [2]: 16.4 µM [falling, single point]
AC50 [1]: 20.6 µM [falling, single point]

COC(=O)CCC(=O)NC(=S)Nc1ccc(S(=O)(=O)Nc2cc(OC)nc(OC)n2)cc1
cell number change: -46.1%
AC50 [2]: 20.6 µM [falling, partial curve]
AC50 [1]: 13 µM [falling, partial curve]

Cc1ccc(-c2nnn(CC(=O)N(CCO)C(C(=O)NC3CCCCC3)c3ccncc3)n2)o1 (configuration not stated)
cell number change: 11.1%

CCNc1ccc(S(=O)(=O)N(C)C)cc1[N+](=O)[O-]
cell number change: -3.16%
AC50 [1]: 13 µM [falling, single point]

CC(=O)c1sc(NC(=O)CS(=O)(=O)c2ccc(F)cc2)nc1C
cell number change: 2.5%

O=c1nc2n(c3sc4c(c13)CCCC4)C(CBr)CS2 (configuration not stated)
cell number change: 7.48%
AC50 [1]: 16.4 µM [rising, single point]

CCOc1ccccc1C(=O)NCC(=O)NCC(c1ccc(OC)cc1)N1CCOCC1 (configuration not stated)
cell number change: 7.36%
AC50 [1]: 0.00517 µM [falling, full curve]

Source: PubChem BioAssay AID2685 (National Center for Advancing Translational Sciences (NCATS), 2010)
